Source: patent US11827917B1, “Methods for the conversion of fermentable sugars to ethanol” (Colorado State University Research Foundation, priority 2020, dated 2023)
Some results were stated once for a whole list of compounds, not compound by compound.

How the values were obtained:
Assay type in all cases: cell-based, Saccharomyces cerevisiae
S. cerevisiae JAY 270 [1] = assay: 1-L batch bioreactor fermentation, time course; settings: addition in the fermentation medium
Protocol: Yeast strain: S. cerevisiae JAY 270, as in Example 1. Inocula for bioreactor experiments with PheOH and TrpOH S. cerevisiae JAY 270 were prepared by culturing the yeast in 100 mL of YPD medium in 200-mL serum bottles overnight in a shaker at 30° C. and 200 rpm. The cells were collected by centrifuging 10 min at 4000×g and 4° C. The cell pellet was washed twice using sterile 0.8% (w/v) NaCl solution. Finally, the cell pellet was resuspended in about 15 mL of 0.8% (w/v) NaCl.
Procedure: Fermentations were carried out in two Eppendorf BioFlo 115 bioreactors containing 1 L sterile YNB medium with 20 g/L glucose (Difco Yeast Nitrogen Base, catalog number 239210). The prepared yeast cells were inoculated in the bioreactor vessels to obtain an initial yeast cell concentration of OD600≈0.1. The fermentation was conducted at pH 5.5, 30° C., and 200 rpm agitation. Ultrapure N2 was sparged at 0.1 standard liters per minute in the bioreactor vessels to maintain anaerobic conditions. Samples were collected at different time points to monitor cell, glucose, and ethanol concentrations.
For experiments with added PheOH, 2.0 mL of PheOH stock solution was added to one of the two vessels when the OD600 reached 1.0 to achieve a final concentration of 0.2% (w/v). In the serum bottle tests, TrpOH had stronger effects on yeast cell growth than PheOH at the same tested concentration. […]

S. cerevisiae JAY 270 [2] = assay: Serum-bottle cultivation in YPD: biomass, glycerol, ethanol yields; settings: 0.2% in the fermentation medium
Protocol: Procedure: Cultivations in serum bottles were used to determine the effect of the best-performing screened chemicals on the ethanol yield. S. cerevisiae JAY 270 was pre-cultured in 100 mL of YPD medium in 200-mL serum bottles overnight in a shaker at 30° C. and 200 rpm. The precultured yeast cells were collected and washed twice as described above. The cell pellet was resuspended in about 10 mL of 0.8% (w/v) NaCl and the cell concentration was estimated as OD600. TyrOH, PheOH, and TrpOH were added to 30 mL of YPD medium in 100-mL serum bottles at 0.05% and 0.2% respectively. The same amount of DMSO was added to YPD medium to serve as the control for TrpOH and TyrOH treatments. The bottles were inoculated with the prepared yeast cells to obtain an initial cell concentration of OD600=0.2. The serum bottles were sealed and cultured in a shaker at 30° C. and 200 rpm for 24 h. Each condition had three biological replicates.
Analytical methods: Cell growth was evaluated by monitoring OD600 and cell dry mass concentration. For dry mass measurements, 1.0 mL of culture was transferred to a pre-dried and pre-weighed 2-mL centrifuge tube. The tubes were centrifuged for 10 min at 14000 rpm using a microcentrifuge, and then the cell pellets were dried in an oven for 3 days at 65° C. The cell dry mass was determined by subtracting the initial tube mass from the dried mass of tube with cells. The concentrations of glucose, ethanol, and glycerol were measured via HPLC (Shimadzu LC20A series) outfitted with a refractive index detector and using an Aminex HPX-87H (300×7.8 mm) organic acid column and Cation H+ guard cartridge (Bio Rad Laboratories, Hercules, CA). The column was maintained at 65° C. and the mobile phase was 5 mM sulfuric acid with a flow rate of 0.6 mL/min. Standard compound solutions were used to calibrate the HPLC. Each sample was analyzed three times by HPLC.

S. cerevisiae JAY 270 [3] = assay: Screening of growth in 24-well plates on YPDA; settings: w/v
Protocol: Procedure: An inoculum culture of S. cerevisiae JAY 270 was grown in 100 mL of yeast extract-peptone-dextrose (YPD) medium (10 g/L yeast extract, 20 g/L peptone, 20 g/L glucose) in 200-mL serum bottles overnight in a shaker at 30° C. and 200 rpm. The cells were collected by centrifuging 10 min at 4000×g and 4° C. To wash off the medium residue, the cell pellet was resuspended in 30 mL of sterile 0.8% (w/v) NaCl solution and centrifuged at 4000×g for 10 min. The cell pellet was washed twice. Finally, the cell pellet was resuspended and diluted in 0.8% (w/v) NaCl to achieve cell concentrations of OD600=0.02 and 0.2.
The eight compounds were added in YPDA separately at 0.03%, 0.05%, 0.1%, and 0.2% (w/v). The standard control treatment contained only YPDA medium without addition of these compounds. Since the TrpOH and TyrOH stock solutions were dissolved in DMSO, the controls for those tests were YPDA with the same concentration of DMSO. A 3-mL aliquot of YPDA medium with or without the test compounds were loaded in each well of the 24-well plate.
Ten μL of the prepared S. cerevisiae JAY 270 cell suspension at OD600=0.02 or 0.2 was loaded onto the YPDA medium in each well of the 24-well plates. Then the plates were sealed with Parafilm and incubated at 30° C. for 24 h. […]
Yeast cell growth was evaluated by visual observation of the colony size in the well and scored as 0, +, ++, and +++.

SMILES	Glycerol yields, decrease (S. cerevisiae JAY 270 [1])	Glycerol yield reduction (S. cerevisiae JAY 270 [2])	Concentration at which cell growth was reduced/inhibited in the plate assay (S. cerevisiae JAY 270 [3]) [%]
OCCc1ccccc1 [PheOH, 2-phenylethanol]	15-20%	more than 20%	≥ 0.1
OCCc1c[nH]c2ccccc12 [TrpOH, tryptophol]	15-20%	more than 20%	
OCCc1ccc(O)cc1 [TyrOH, Tyrosol]		more than 20%	≥ 0.1
